Results taken from US20250171555A1.
No constants are given. Whether binding was seen depends on the method and setting. Some results given as binding are weak or reduced against the parent protein; the word gives no strength.

Target: T1, dog C5aR1 (dog) (UniProt P30992)
T1 sequence (looked up): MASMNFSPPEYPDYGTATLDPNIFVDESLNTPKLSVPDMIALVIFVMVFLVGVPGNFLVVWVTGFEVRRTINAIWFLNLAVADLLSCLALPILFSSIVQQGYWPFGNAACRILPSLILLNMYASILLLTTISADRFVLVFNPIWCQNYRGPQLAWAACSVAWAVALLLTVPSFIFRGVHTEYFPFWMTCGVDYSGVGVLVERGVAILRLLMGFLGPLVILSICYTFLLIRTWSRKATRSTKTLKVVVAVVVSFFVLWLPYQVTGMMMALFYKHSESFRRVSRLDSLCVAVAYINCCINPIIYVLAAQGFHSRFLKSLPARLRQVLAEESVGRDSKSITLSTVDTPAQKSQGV
Assay: cell surface binding, flow cytometry, half-log titration 10^-7.5 to 10^-12 M

- binding: binds
B1: e1711 (antibody, human IgG4 S228P, kappa, V domains shown)
VH: EVQLVESGGGLIQPGGSLRLSCAASGFTFNAYAMSWVRQAPGKGLEWVSSISTGGNTYYADSVKGRFTISRDNSKNTLYLQMNSLRAEDTAVYYCTRGYQRFSGFAYWGQGTLVTVSS
VL: EIVLTQSPATLSLSPGERATLSCRSSQSLVHSNGNTYLNWYQQKPGQAPRLLIYKVSNRLSGIPARFSGSGSGTDFTLTISSLEPEDFAVYYCSQSTHVPYTFGQGTKLEIKR
